Measured values taken from PubChem BioAssay AID256 (DTP/NCI, 2004).
The list shows only some results of the screen, not a fair sample: it is rich in T/C values a quarter to a half above the control, in often repeated tests (any T/C) and in doses without a T/C. Other doses and runs of a compound stand elsewhere. T/C: endpoint of the treated group in % of that of the vehicle group. Some entries give survivors of the animals treated and no T/C: the source holds a T/C of zero for them, seemingly a mark for toxic or unscored doses. Some survivor counts are full or nearly so, which does not show that the dose was tolerated: the source hardly ever lists a survival T/C far under the control, and the zero likely stands for such cases as well. Counts of survivors are from the toxicity check (mostly the fifth day) where no day follows; animals may have died later. Schedule codes are those of the source, taken here to give the interval after Q, in days (D) or hours (H), and the number of doses after X. Some doses were run more than once; the results are listed from low to high. For survival time, this PubChem deposit counts one and a half times the control or more as active, and values a quarter to a half above the control carry no call in these data; other NCI protocols may use other cut-offs. Some T/C values carry the count of animals alive at the toxicity check (mostly the fifth day); where none is given, no animal had died by that day. Counts like (3×) stand for listed records that agree.

Test system: CD2F1 mice, L1210 leukemia ip, survival T/C
Experiment: NCI In Vivo Anticancer Drug Screen. Data for tumor model L1210 Leukemia (intraperitoneal) in CD2F1 (CDF1) mice
Conditions: T/C endpoint: mean survival time, higher T/C = longer survival
Procedure: The antitumor activity of compounds was measured in mice bearing transplantable tumors. Survival or tumor size were measured and the results are expressed as the measurement made in the treated group (T) divided by the measurement made in the vehicle treated control group (C). The tumor model used in this assay is L1210 Leukemia (intraperitoneal) in CD2F1 (CDF1) mice

[1] = dose: 200.0 mg/kg/injection, schedule: Q01DX009 (ip), vehicle: saline with Tween-80
[2] = dose: 200.0 mg/kg/injection, schedule: Q04DX003 (ip), vehicle: saline with Tween-80
[3] = dose: 200.0 mg/kg/injection, schedule: Q01DX009 (ip), vehicle: other

NC(=O)C[n+]1cccc(C(=O)Nc2ccccc2)c1
survivor count (dose: 400.0 mg/kg/injection, schedule: Q01DX009 (ip), vehicle: saline sonified): 3 of 6

Cc1ccc(NC(=O)OCCSc2ccc(Cl)cc2)cc1C
survivor count [1]: 3 of 3

COc1ccc(C[As+](c2ccccc2)(c2ccccc2)c2ccccc2)cc1
survivor count (dose: 75.0 mg/kg/injection, schedule: Q01DX001 (ip), vehicle: saline): 0 of 6 | survivor count (dose: 80.0 mg/kg/injection, schedule: Q01DX001 (ip), vehicle: saline): 0 of 6 | survivor count (dose: 150.0 mg/kg/injection, schedule: Q01DX001 (ip), vehicle: saline): 0 of 6 | survivor count (dose: 300.0 mg/kg/injection, schedule: Q01DX001 (ip), vehicle: saline): 0 of 6

CN(Cc1ccc[n+](Cc2ccc(S(=O)(=O)F)cc2)c1)C(=O)COc1ccc(Cl)c(Cl)c1
survivor count (dose: 400.0 mg/kg/injection, schedule: Q04DX003 (ip), vehicle: saline with Tween-80): 3 of 6

Cc1ccc(OCc2c(COc3ccc(Cl)cc3)sc3ccc(Cl)cc23)cc1
survivor count [2]: 6 of 6

COc1cc2cc3c4cc(OC)c(OC)cc4cc[n+]3c(C)c2cc1OC (tested in a mixture with another compound)
T/C (dose: 12.5 mg/kg/injection, schedule: Q01DX009 (ip), vehicle: other): 100, 110, 120, 125, 129 % of control | T/C (dose: 25.0 mg/kg/injection, schedule: Q01DX009 (ip), vehicle: other): 113, 121, 126, 135 [5 of 6 alive], 137 % of control [5 of 6 alive] | T/C (dose: 25.0 mg/kg/injection, schedule: Q01DX009 (ip), vehicle: saline): 129 % of control | T/C (dose: 50.0 mg/kg/injection, schedule: Q01DX009 (ip), vehicle: other): 114, 125 [5 of 6 alive], 132, 140, 163 % of control [5 of 6 alive] | T/C (dose: 66.0 mg/kg/injection, schedule: Q04DX003 (ip), vehicle: saline with Tween-80): 126 % of control | T/C (dose: 100.0 mg/kg/injection, schedule: Q01DX009 (ip), vehicle: other): 86, 120 [5 of 6 alive], 131 (2×), 161 % of control [5 of 6 alive] | survivor count (dose: 100.0 mg/kg/injection, schedule: Q01DX009 (ip), vehicle: saline): 6 of 6 | T/C (dose: 100.0 mg/kg/injection, schedule: Q04DX003 (ip), vehicle: saline with Tween-80, evaluated on day 20): 131 % of control | T/C (dose: 100.0 mg/kg/injection, schedule: Q04DX003 (ip), vehicle: saline with Tween-80, evaluated on day 30): 125 % of control | T/C (dose: 100.0 mg/kg/injection, schedule: Q04DX003 (ip), vehicle: saline): 135 % of control | survivor count (dose: 150.0 mg/kg/injection, schedule: Q01DX009 (ip), vehicle: saline): 1 of 6 | T/C (dose: 150.0 mg/kg/injection, schedule: Q04DX003 (ip), vehicle: saline with Tween-80): 131 % of control | T/C [3]: 120 % of control | survivor count [3]: 1 of 6, 4 of 6, 5 of 6 | survivor count (dose: 200.0 mg/kg/injection, schedule: Q01DX009 (ip), vehicle: saline): 0 of 6 | T/C [2]: 147 % of control | survivor count (dose: 400.0 mg/kg/injection, schedule: Q04DX003 (ip), vehicle: saline): 1 of 6

CC1(C)CN(c2ccccc2)N(CN2CCOCC2)C1=O
survivor count (dose: 25.0 mg/kg/injection, schedule: Q01DX009 (ip), vehicle: Klucel (hydroxypropylcellulose) (HPC)): 0 of 3 | survivor count (dose: 50.0 mg/kg/injection, schedule: Q01DX009 (ip), vehicle: Klucel (hydroxypropylcellulose) (HPC)): 0 of 3 | survivor count (dose: 100.0 mg/kg/injection, schedule: Q01DX009 (ip), vehicle: Klucel (hydroxypropylcellulose) (HPC)): 0 of 3 | survivor count (dose: 200.0 mg/kg/injection, schedule: Q01DX009 (ip), vehicle: Klucel (hydroxypropylcellulose) (HPC)): 0 of 3

COC(=O)c1[nH]cnc1/N=N/N(C)C.[Cl][Cu][Cl]
survivor count (dose: 40.0 mg/kg/injection, schedule: Q01DX001 (ip), vehicle: saline): 0 of 6

COc1c(O)ccc(/C=C2/SC(=S)NC2=O)c1[N+](=O)[O-]
survivor count (dose: 200.0 mg/kg/injection, schedule: Q01DX001 (ip), vehicle: saline with Tween-80): 2 of 6 | survivor count (dose: 400.0 mg/kg/injection, schedule: Q01DX001 (ip), vehicle: saline with Tween-80): 0 of 6

CC(=O)ON1C(=O)c2cccc3cccc(c23)C1=O
survivor count [1]: 0 of 3
